# From PubChem BioAssay AID445 (National Center for Advancing Translational Sciences (NCATS), 2006)
# Some of the results follow. The main result of the screen is listed elsewhere. These columns were measured beside it and carry no call. Compounds called inactive in the main read-out are mostly missing here. The note in brackets gives the kind of curve behind each potency; many fits are weak.
# Experiment: IkB Signaling
# Conditions: ABC-DLBCL IkBa-CBG/CBR dual luciferase ratio (green luciferase fused to IkBa over red control in OCI-Ly3 lymphoma cells), 4 h; measured here: control luc red channel unless noted
# Summary of the method: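 In this assay, an IκBα–CBG68 fusion accumulates when IKK-driven degradation is blocked; native CBR normalizes for cell number. OCI-Ly3 cells were treated 4 h with compound and doxycycline, then green and red light read after Chroma-Glo addition.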
row,SMILES,AC50
1,COCCN(Cc1ccco1)C(=O)c1cc2c(=O)[nH]c3ccc(C)cc3c2s1,"39.8 µM [falling, single point]"
2,COC(=O)c1ccc(NC(=O)CCCC(=O)OCC(=O)c2ccc(Cl)cc2)cc1,"15.8 µM [falling, single point]"
3,COc1ccc(CCNC(=O)c2cccc(Nc3nc4ccccc4nc3-n3nc(C)cc3C)c2)cc1OC,"5.01 µM [falling, partial curve]"
4,CCOc1c(Br)cc(C2CC(=O)Nc3cc4c(cc32)OCO4)cc1OC (stereo not drawn),"39.8 µM [falling, partial curve]"
5,COc1ccc(C2C=C(c3ccc(Cl)cc3)Nc3nc(-c4ccc(Cl)cc4)nn32)cc1 (stereo not drawn),"15.8 µM [falling, partial curve]"
6,CCOC(=O)Cn1c(=O)oc2cc(S(=O)(=O)N3CCN(c4cccc(C)c4)C(C)C3)ccc21 (stereo not drawn),"10 µM [falling, partial curve]"
7,Cc1nc(-c2ccc(NC(=O)c3cccs3)cc2)cs1,"0.501 µM [falling, full curve]"
8,CC1=C(C(=O)OCc2ccc3c(c2)OCO3)C(c2ccc(F)cc2)NC(=O)N1 (stereo not drawn),"12.6 µM [falling, partial curve]"
9,CCC(=O)c1ccc(OCC(O)CN2CCN(c3cccc(C(F)(F)F)c3)CC2)cc1 (stereo not drawn),"15.8 µM [falling, partial curve]"
10,O=C1CCSC2(C(=O)N(Cc3ccc(F)cc3)c3ccccc32)N1c1ccc(Cl)cc1 (stereo not drawn),"15.8 µM [falling, partial curve]"
11,COc1ccc(Cl)cc1NC(=O)N1CCN(Cc2cc(=O)n3nc(-c4ccccc4)sc3n2)CC1,"12.6 µM [falling, partial curve]"
12,Cc1nnc(NC(=O)C2COc3ccccc3O2)s1 (stereo not drawn),"12.6 µM [falling, partial curve]"
13,COc1ccc(C(=O)COC(=O)c2cc(-c3cccs3)nc3ccccc23)cc1,"31.6 µM [falling, partial curve]"
14,Cc1cccc(N2CCN(S(=O)(=O)c3cc(C(=O)Nc4ccc(Oc5ccccc5)cc4)ccc3F)CC2)c1C,"5.01 µM [falling, partial curve]"
15,O=c1oc2ccccc2c(N2CCN(c3ccc(F)cc3)CC2)c1CN1CCCC1,"15.8 µM [falling, partial curve]"
16,C=CCn1cnc2c(NCc3ccccc3)ncnc21,"12.6 µM [falling, partial curve]"
17,Cc1ccccc1NC(=O)Cn1c(=O)n(CCc2ccccc2)c(=O)c2ccccc21,"10 µM [falling, partial curve]"
18,COc1ccc(-c2nnc(SCC(=O)c3cc(C)n(Cc4cccs4)c3C)o2)cc1,"39.8 µM [rising, single point]"
19,CCc1nn2c(=O)cc(COC(=O)c3ccccc3NC(=O)COc3ccc(C)c(C)c3)nc2s1,"5.01 µM [falling, partial curve]"

# Quoted from the listing:
# In AC50, CCC(=O)c1ccc(OCC(O)CN2CCN(c3cccc(C(F)(F)F)c3)CC2)cc1 (stereo not drawn) reads 15.8 µM [falling, partial curve]
# In AC50, CC1=C(C(=O)OCc2ccc3c(c2)OCO3)C(c2ccc(F)cc2)NC(=O)N1 (stereo not drawn) reads 12.6 µM [falling, partial curve]

# (continued)

row,SMILES,AC50
1,CCCCn1cc(S(=O)(=O)c2cc(C)ccc2C)c(=O)c2cc(F)c(F)cc21,"25.1 µM [falling, single point]"
2,COc1ccc(Br)cc1[C@@H]1Nc2ccc(C(=O)O)cc2[C@@H]2C=CC[C@@H]21,"10 µM [falling, partial curve]"
3,Cc1c(Cl)cccc1-n1ncc(C(=O)NC2CCCCC2)c1C1CCN(C(=O)OC(C)(C)C)CC1,"15.8 µM [falling, partial curve]"
4,CC(=O)OCC(=O)[C@@]12OC(C)(C)O[C@@H]1C[C@H]1[C@H]3C[C@H](F)C4=CC(=O)C=C[C@@]4(C)[C@]3(F)[C@H](O)C[C@@]12C,"3.16 nM [rising, full curve, poor fit] [measured here: IkB-luc green channel]"
5,CCOc1ccc(/C=C/c2nc(C#N)c(NC(C)c3ccccc3)o2)cc1 (stereo not drawn),"39.8 µM [falling, single point]"
6,COc1ccc(C)cc1NC(=O)Nc1cccc(OCc2cc(=O)n3ccc(C)cc3n2)c1,"1.58 µM [falling, full curve]"
7,Cc1ccccc1OCC(=O)NCC(c1ccc(Cl)cc1)N1CCCCC1 (stereo not drawn),"31.6 µM [falling, single point]"
8,CCOC(=O)c1ccc(-n2c(CCC(=O)O)ccc2-c2ccccc2)cc1,"25.1 µM [falling, partial curve]"
9,COc1ccc(C(=O)CC2(O)C(=O)N(Cc3cccc(C(F)(F)F)c3)c3ccccc32)cc1 (stereo not drawn),"39.8 µM [falling, single point]"
10,COc1cccc(C(=O)N2c3ncnn3C3(CCCCC3)[C@@H]3CCCC[C@@H]32)c1,"12.6 µM [falling, partial curve]"
11,O=C(CC(c1ccccc1)c1cc(Br)ccc1O)NCc1ccco1 (stereo not drawn),"15.8 µM [falling, partial curve]"
12,CN(Cc1ccccc1)S(=O)(=O)c1ccc(NC(=O)c2cc(=O)c3ccccc3o2)cc1,"3.16 µM [falling, full curve]"
13,CCc1cccc(C)c1NC(=O)CN1C(=O)C2(SCC(=O)N2c2cccc(F)c2)c2ccccc21 (stereo not drawn),"25.1 µM [falling, single point]"
14,CCOc1cccc2cc(S(=O)(=O)c3ccccc3F)c(=O)oc12,"39.8 µM [falling, single point]"
15,COc1cccc(-c2nc(SCC(=O)NC3CCCC3)c(-c3ccc(C)cc3)[nH]2)c1,"10 µM [falling, partial curve]"
16,Cc1ccc(CNC(=O)c2ccc3nc(SCc4ccc(F)cc4)[nH]c3c2)cc1,"10 µM [falling, partial curve]"
17,CCN(CC)C(=O)CSc1nc(-c2ccc(C)cc2)nc2c1Cc1c(CO)cnc(C)c1O2,"0.0251 µM [rising, full curve, poor fit]"
18,CCc1cccc(NC(=O)C(Cc2ccccc2)n2cccc2)c1 (stereo not drawn),"39.8 µM [falling, single point]"
19,CCc1ccc(NC(=O)CN(c2cc(C)cc(C)c2)S(=O)(=O)c2c(C)[nH]c(=O)[nH]c2=O)cc1,"39.8 µM [falling, single point]"
